These are yes or no findings as the source states them, for the method shown. Binding seen in cells or lysates may run through a third protein. For some assays here: A result given as binding can be weak or reduced; the word gives no strength. Where a sequence is shown, tags or fusion partners need not be part of it.
Experiments:
[1] = molecular target: GST-YTHDF3 N-terminal domain; test: pull-down; GST-YTHDF3 fragments from E. coli BL21 on Glutathione-Sepharose beads, incubated with cell lysate at 4 °C overnight, washed six times, western blot for ZDHHC20; only the target purified
[2] = molecular target: GST-YTHDF3 C-terminal domain; test: as above

- binding [1]: no binding
- binding [2]: binds
B1: ZDHHC20 (in the cell lysate of the GST pull-down) (enzyme, UniProt Q5W0Z9 1-365)
chain: MAPWTLWRCCQRVVGWVPVLFITFVVVWSYYAYVVELCVFTIFGNEENGKTVVYLVAFHLFFVMFVWSYWMTIFTSPASPSKEFYLSNSEKERYEKEFSQERQQEILRRAARALPIYTTSASKTIRYCEKCQLIKPDRAHHCSACDSCILKMDHHCPWVNNCVGFSNYKFFLLFLLYSLLYCLFVAATVLEYFIKFWTNELTDTRAKFHVLFLFFVSAMFFISVLSLFSYHCWLVGKNRTTIESFRAPTFSYGPDGNGFSLGCSKNWRQVFGDEKKYWLLPIFSSLGDGCSFPTRLVGMDPEQASVTNQNEYARSSGSNQPFPIKPLSESKNRLLDSESQWLENGAEEGIVKSGTNNHVTVAIEN

Source: article PMC11143236
